This is an account of results in patent US20210238278A1.

Sequences of proteins named here, by UniProt entry; tags and fusion partners are left off. Residues count along the entry.
UniProt P23242, residues 2-382: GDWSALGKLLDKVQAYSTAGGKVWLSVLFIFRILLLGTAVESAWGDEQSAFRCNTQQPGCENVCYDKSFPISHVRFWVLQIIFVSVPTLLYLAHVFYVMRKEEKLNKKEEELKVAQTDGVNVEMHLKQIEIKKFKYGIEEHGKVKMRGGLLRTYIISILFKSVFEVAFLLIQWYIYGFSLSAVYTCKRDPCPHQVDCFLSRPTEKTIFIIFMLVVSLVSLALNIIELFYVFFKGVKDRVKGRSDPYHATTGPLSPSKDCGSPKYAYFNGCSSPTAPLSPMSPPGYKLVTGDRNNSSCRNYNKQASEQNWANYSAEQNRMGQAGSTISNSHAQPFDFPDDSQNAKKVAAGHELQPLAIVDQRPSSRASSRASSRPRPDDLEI

This assay has as its target connexin 43 (Cx43) of MLO-Y4 osteocytic cells (UniProt P23242). Kind of assay: immunofluorescence on ethanol-fixed MLO-Y4 osteocyte cells, goat anti-mouse FITC secondary.

No constants are given. Whether binding was seen depends on the method and setting. Some binding calls cover weakened binding; strength is not graded here.

B1: mouse monoclonal antibody (M2) (antibody, V domains shown)
VH: EVQLEQPGAELVKPGASVKLSCKASGYTFTSYYMYWVKQRPGQGLEWIGGINPSNGGTNFNEKFKNKATLTVDKSSSTAYMQLSSLTSEDSAVYYCTREGNPYYTMNYWGQGTSVTVSS
VL: DIVMTQTPSSLSVSAGEKVTMSCKSSQSLLNSGNQKTYLAWYQQKPGQPPKLLIYGASTRESGVPDRFTGSGSGTDFTLTISSVQAEDLAVYYCQNDHSYPFTFGSGTKLEIKR
As to B1, the binding entry is reported as “binds”.
